{"source": "the supplement of paper PMC11348887", "details_in_all_cases": "5 µM; treatment: days 7-14 after plating, readout day 21", "key": {"[1]": {"system": "hPSC-derived cortical neurons (WA09)", "assay": "nucleus area z-score vs screen plate; higher = larger nuclei (more mature)"}, "[2]": {"system": "hPSC-derived cortical neurons (WA09)", "assay": "total neurite length per nucleus (MAP2) z-score; higher = more neurite growth"}, "[3]": {"system": "hPSC-derived cortical neurons (WA09)", "assay": "nucleus roundness z-score vs screen plate; higher = rounder nuclei (more mature)"}, "[4]": {"system": "hPSC-derived cortical neurons (WA09)", "assay": "KCl-induced FOS+/EGR-1+ double-positive nuclei fraction z-score (KCl minus unstimulated); higher = stronger activity-induced IEG response"}}, "note": "This is one part of the list. Small differences around the control level are noise.", "data": [{"smiles": "COc1ccc(C2=N[C@@H](c3ccc(Cl)cc3)[C@@H](c3ccc(Cl)cc3)N2C(=O)N2CCNC(=O)C2)c(OC(C)C)c1", "note": "[Nutlin-3a]", "values": [{"measurement": "nucleus area z-score", "setting": "[1]", "value": -1.78}, {"measurement": "total neurite length per nucleus (z-score)", "setting": "[2]", "value": 0.719}, {"measurement": "nucleus roundness z-score", "setting": "[3]", "value": 0.849}, {"measurement": "KCl-induced FOS+/EGR-1+ double-positive nuclei fraction z-score", "setting": "[4]", "value": -0.0521}]}, {"smiles": "COc1ccc(Cn2ccc3ccc(C(=O)NO)cc32)cc1", "values": [{"measurement": "nucleus area z-score", "setting": "[1]", "value": -0.0959}, {"measurement": "total neurite length per nucleus (z-score)", "setting": "[2]", "value": 0.202}, {"measurement": "nucleus roundness z-score", "setting": "[3]", "value": 0.289}, {"measurement": "KCl-induced FOS+/EGR-1+ double-positive nuclei fraction z-score", "setting": "[4]", "value": 0.617}]}, {"smiles": "Cc1ccc2nc(CN(CCN(Cc3nc4ccc(C)cc4[nH]3)Cc3nc4ccc(C)cc4[nH]3)Cc3nc4ccc(C)cc4[nH]3)[nH]c2c1", "values": [{"measurement": "nucleus area z-score", "setting": "[1]", "value": -15.1}, {"measurement": "total neurite length per nucleus (z-score)", "setting": "[2]", "value": -6.32}, {"measurement": "nucleus roundness z-score", "setting": "[3]", "value": 0.0134}, {"measurement": "KCl-induced FOS+/EGR-1+ double-positive nuclei fraction z-score", "setting": "[4]", "value": -0.939}]}, {"smiles": "Cc1cccc(Nc2ccccc2C(=O)O)c1C", "note": "[Mefenamic Acid]", "values": [{"measurement": "nucleus area z-score", "setting": "[1]", "value": -0.257}, {"measurement": "total neurite length per nucleus (z-score)", "setting": "[2]", "value": 0.467}, {"measurement": "nucleus roundness z-score", "setting": "[3]", "value": 0.784}, {"measurement": "KCl-induced FOS+/EGR-1+ double-positive nuclei fraction z-score", "setting": "[4]", "value": 1.25}]}]}
